Experimental data reported in PubChem BioAssay AID504467 (National Center for Advancing Translational Sciences (NCATS), 2011).
The campaign covered roughly 330,000 compounds. About 7,700 (2.3%) were called active. The shares of active, inactive and inconclusive entries below differ from those in the screen. The call rests on the fitted dose curve; in most records, active means well fitted inhibition curve with a large enough effect; inconclusive means small, poorly fitted or top-dose-only effect, or effect the other way; inactive means flat fitted curve, though single readings scatter. Potencies beside an inconclusive call are fits to weak or partial responses and may not hold up.

Assay: qHTS screen for small molecules that inhibit ELG1-dependent DNA repair in human embryonic kidney (HEK293T) cells expressing luciferase-tagged ELG1; further: nearly all actives have a fitted effect of over 55% in size
Settings: HEK293T ELG1-luciferase reporter, luminescence, 16 h, DNA damage induced by 5-fluorouridine; series mostly up to 46.1 µM
Outline: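 HEK293T cells expressing luciferase-tagged ELG1 (2,000/well) received 5-Fluorouridine plus compound or DMSO for 16 hr at 37 °C. Luciferase was read by ONE-Glo luminescence after 30 min at room temperature.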
Potency means the concentration at half of the fitted maximal effect.

| Compound | Potency |
| --- | --- |
| Cc1cc(C)nc(SC(C(=O)O)c2ccccc2)n1 (configuration not stated) | inconclusive: 29.1 µM [activator, partial curve, poor fit] |
| CC(C)CC1=NN(C(=O)c2ccncc2)C(O)(C(F)(F)F)C1 (configuration not stated) | inconclusive: 20.6 µM [inhibitor, single point] |
| Cc1ccc2c(c1)c1ncn(Cc3ccc(F)cc3)c(=O)c1n2C | inactive |
| CCOC(=O)C1=C(COC(=O)c2ccc(OC(C)C)cc2)NC(=O)NC1C (configuration not stated) | inconclusive: 0.73 µM [inhibitor, single point] |
| COC(=O)c1[nH]c2cccc(OC)c2c1NC(=O)CCN1CCN(c2cccc(Cl)c2)CC1 | active: 18.4 µM |
| Cc1nc(S(=O)(=O)Cc2ccc(Cl)cc2)nc2c1CCC2 | inconclusive: 29.1 µM [inhibitor, single point] |
| O=C(O)COc1ccccc1/C=N/NC(=O)c1cc(-c2ccccc2)nc2ccccc12 | inactive |
| Cc1ccc(NC(=O)/C=C\C(=O)O)c([N+](=O)[O-])c1 | inactive |
| COCC(C)n1c(COc2ccccc2F)nnc1SCc1c(C)noc1C (configuration not stated) | inconclusive: 9.2 µM [activator, single point] |
| COc1cc(NC(=O)CN(c2ccc(C)cc2)S(=O)(=O)c2c(C)noc2C)cc(OC)c1 | inactive |
| O=C(CCc1ccccc1)Nc1ccccc1[N+](=O)[O-] | inconclusive: 18.4 µM [activator, partial curve] |
| Nc1nnc(SCC(=O)Nc2cccc(Cl)c2)s1 | inconclusive: 7.3 µM [inhibitor, single point] |
| O=C(OCc1nnc(-c2ccccc2)o1)C1CC(=O)N(Cc2ccco2)C1 (configuration not stated) | inactive |
| Cc1[nH]n(-c2ccc([N+](=O)[O-])cc2)c(=O)c1C=NCCN1CCN(C(=O)c2ccc(Br)cc2)CC1 | inconclusive: 20.6 µM [inhibitor, single point] |
| COc1ccc(S(=O)(=O)N2N=C(c3ccc(NS(C)(=O)=O)cc3)CC2c2ccco2)cc1 (configuration not stated) | inconclusive: 29.1 µM [inhibitor, single point] |
| COc1ccccc1/C=C(\NC(=O)c1ccc(OC)c(OC)c1)C(=O)Nc1cccc([N+](=O)[O-])c1 | inconclusive: 2.91 µM [inhibitor, full curve, poor fit] |
| O=C(Nc1ccc(N2CCCCC2)cc1)c1ccc([N+](=O)[O-])o1 | inconclusive: 14.6 µM [activator, partial curve] |
| O=C(Nc1ccc(F)c(Cl)c1)N1CCCCCC1 | inconclusive: 14.6 µM [activator, partial curve] |
| CCOC(=O)CC1C(=O)NCCN1C(=O)Nc1ccccc1 (configuration not stated) | inconclusive: 13 µM [activator, partial curve, poor fit] |
| CCOC(=O)c1c(C)[nH]c(C(=O)COC(=O)CCSc2ccccc2)c1C | inconclusive: 16.4 µM [activator, partial curve] |
| CSc1ccc(/C=N/n2nnnc2N)cc1 | inconclusive: 20.6 µM [activator, partial curve, poor fit] |

Two compounds picked at random from those above:

| Compound | Potency |
| --- | --- |
| Cc1cc(C)nc(SC(C(=O)O)c2ccccc2)n1 (configuration not stated) | inconclusive: 29.1 µM [activator, partial curve, poor fit] |
| CCOC(=O)C1=C(COC(=O)c2ccc(OC(C)C)cc2)NC(=O)NC1C (configuration not stated) | inconclusive: 0.73 µM [inhibitor, single point] |

Continued:

| Compound | Potency |
| --- | --- |
| CCOC(=O)c1c2n(c3c(NCc4ccccc4)ncnc13)CCCC2 | inconclusive: 29.1 µM [inhibitor, single point] |
| Cc1ccc(CN(Cc2cccnc2)C(=O)CN2C(=O)COc3ccccc32)o1 | inconclusive: 32.6 µM [inhibitor, partial curve, poor fit] |
| CCCc1ccc2oc(C(=O)N3CCCC3)c(C)c2c1 | inconclusive: 14.6 µM [activator, partial curve] |
| COc1ccccc1C(=O)C1CCCN(C(=O)c2ccccc2C(C)=O)C1 (configuration not stated) | inconclusive: 2.59 µM [activator, partial curve] |
| COCC1CCN(C(=O)c2cc(COc3ccc4c(c3)CCCC4)on2)C1 (configuration not stated) | inactive |
| Cc1ccc(S(=O)(=O)N2CCCCC2)cc1NS(=O)(=O)c1ccccc1F | inactive |
| Cc1ccc(Nc2nnc(SCC(=O)c3cc4ccccc4o3)s2)cc1C | inconclusive: 11.6 µM [activator, partial curve] |
| Cc1cc(=O)n(C)c(=O)n1CCCCCCOc1cccc([N+](=O)[O-])c1 | inconclusive: 18.4 µM [inhibitor, partial curve] |
| CC(C)(C)N1C(=O)[C@H]2[C@@H](c3ccc(Br)cc3)N3C(=O)N(c4ccccc4)C(=O)[C@@]3(Cc3ccccc3)[C@H]2C1=O | inactive |
| CCc1ccc2c(c1)C1(C(=O)N2)N2CCCC2C(C(=O)c2ccc3ccccc3c2)C12C(=O)Nc1ccccc12 (configuration not stated) | inconclusive: 32.6 µM [inhibitor, single point] |
| COc1ccc(N(C)C(=O)c2cc3c(s2)-c2ccccc2OC3)c(OC)c1 | inconclusive: 23.1 µM [inhibitor, single point] |
| O=[N+]([O-])c1ccc(N/N=C2/CCCCC2c2ccccn2)cc1 (configuration not stated) | inactive |
| COc1ccc(OCC(=O)N2CCN(c3nnc(-c4ccc(C)cc4)c4ccccc34)CC2)cc1 | inconclusive: 18.3 µM [inhibitor, single point] |
| CCOC(=O)C1CCN(C(c2cccnc2)c2c(NC(=O)c3ccco3)sc(C)c2C)CC1 (configuration not stated) | active: 14.6 µM |
| O=C(CSc1nnc(CNc2ccc(F)cc2)n1CC1CCCO1)Nc1ccccc1 (configuration not stated) | inactive |
| N=c1oc2cc(O)ccc2cc1C(=O)Nc1ccc(Br)cc1 | inconclusive: 7.3 µM [activator, partial curve] |
| CCOC(=O)c1ccc(CSc2ncn[nH]2)o1 | inconclusive: 29.1 µM [activator, single point] |
| N#Cc1nc(-c2ccc(F)cc2)oc1NCc1ccco1 | inconclusive: 29.1 µM [activator, partial curve, poor fit] |
| COc1ccc(C(=O)N2N=C(c3cccc(OC)c3)CC2(O)C(F)(F)F)cc1 (configuration not stated) | inconclusive: 23.1 µM [inhibitor, partial curve, poor fit] |
| COc1ccccc1N1CCN(C2CC(=O)N(c3ccc(Cl)cc3)C2=O)CC1 (configuration not stated) | inconclusive: 4.47 µM [inhibitor, partial curve] |
| COc1ccc(NC(=O)CC2C(=O)N(c3ccc(OC)cc3)C(=O)N2CCc2cccs2)cc1 (configuration not stated) | inconclusive: 18.4 µM [inhibitor, partial curve, poor fit] |
